This assay deals with T1, C3a receptor 1 (human (endogenous in HUVEC)) (UniProt Q16581).
T1 sequence: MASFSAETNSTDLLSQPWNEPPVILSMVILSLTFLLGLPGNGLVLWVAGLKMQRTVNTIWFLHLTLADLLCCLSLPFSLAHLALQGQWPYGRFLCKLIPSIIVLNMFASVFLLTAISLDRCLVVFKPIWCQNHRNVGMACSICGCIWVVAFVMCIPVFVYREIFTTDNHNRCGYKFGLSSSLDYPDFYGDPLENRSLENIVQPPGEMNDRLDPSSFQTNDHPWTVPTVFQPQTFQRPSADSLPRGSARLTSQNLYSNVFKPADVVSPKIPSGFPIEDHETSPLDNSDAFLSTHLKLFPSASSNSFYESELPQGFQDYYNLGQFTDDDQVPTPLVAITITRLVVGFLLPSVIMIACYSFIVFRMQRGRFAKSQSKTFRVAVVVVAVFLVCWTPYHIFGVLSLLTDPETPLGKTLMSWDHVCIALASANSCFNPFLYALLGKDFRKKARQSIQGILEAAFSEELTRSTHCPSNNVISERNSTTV
The assay is described as follows: fluorescence confocal microscopy of a FITC-labelled peptide attached to cells; HUVECs with or without C3aR knockdown (siC3aR #2 or scramble RNA) incubated with the indicated concentrations of FITC-Peptide 2 (200 μmol/l in Fig. 7B) for 2 h at 4 °C, washed with PBS three times, fixed with 4% paraformaldehyde; only the binder purified.

These are yes or no findings as the source states them, for the method shown. Some entries that bind do so weakly or less than the wild type.

Consider RLLWENGNL (FITC-conjugated (position not given)) [FITC-conjugated Peptide 2], for which the binding entry is given as “binds”.

These data come from paper PMC8167299, “Cardio- and reno-protective effects of dipeptidyl peptidase III in diabetic mice” (The Journal of Biological Chemistry, 2021).
